Laboratory results published in PubChem BioAssay AID248 (DTP/NCI, 2004).
The list does not hold the whole screen: it is rich in T/C values a quarter to a half above the control, in often repeated tests (any T/C) and in doses without a T/C. Other doses and runs of a compound stand elsewhere. T/C gives the treated animals as a percentage of the vehicle group. Some doses have a count of surviving animals in place of a T/C: the source holds a T/C of zero for them, seemingly a mark for toxic or unscored doses. Some doses without a T/C left all or most animals alive at the check, yet need not have been tolerated: the source hardly ever lists a survival T/C far under the control, and the zero likely stands for such cases as well. Counts of survivors are from the toxicity check (mostly the fifth day) where no day follows; animals may have died later. Schedule codes are those of the source, taken here to give the interval after Q, in days (D) or hours (H), and the number of doses after X. Some schedules carry Z or #; the key to these is not given. For survival time, this PubChem deposit counts one and a half times the control or more as active, and values a quarter to a half above the control carry no call in these data; other NCI protocols may use other cut-offs. Brackets with × say how often a value occurs here. Some entries hold several experiments; the results are listed from low to high. Some T/C values are followed by the survivors on the day toxicity was checked, most often the fifth; without a count, all were alive then.

System: L1210 leukemia ip in BDF1 mice, survival T/C
Test: NCI In Vivo Anticancer Drug Screen. Data for tumor model L1210 Leukemia (intraperitoneal) in B6D2F1 (BDF1) mice
Details: higher T/C = longer survival

## O=c1[nH]c(=O)n(C2CC(O)C(CO)O2)cc1F (stereo not given)
T/C endpoint: mean survival time, dose: 120.0 mg/kg/injection, schedule: Q01DX009 (ip), vehicle: saline, evaluated on day 60
  T/C: 149 % of control
T/C endpoint: mean survival time, dose: 120.0 mg/kg/injection, schedule: Q## X009 (ip), vehicle: saline
  T/C: 149 % of control
T/C endpoint: mean survival time, dose: 134.0 mg/kg/injection, schedule: Q02DX010 (ip), vehicle: carboxymethylcellulose (CMC)
  T/C: 149 % of control
T/C endpoint: mean survival time, dose: 141.0 mg/kg/injection, schedule: Q02DX008 (ip), vehicle: saline
  T/C: 137 % of control
T/C endpoint: mean survival time, dose: 141.0 mg/kg/injection, schedule: Q02DX008 (ip), vehicle: water
  T/C: 147 % of control
T/C endpoint: mean survival time, dose: 142.0 mg/kg/injection, schedule: Q04DX002 (ip), vehicle: saline
  T/C: 101, 113, 118, 119 % of control
T/C endpoint: mean survival time, dose: 144.0 mg/kg/injection, schedule: Q01DX009 (ip), vehicle: saline
  T/C: 130 and 131 % of control
T/C endpoint: mean survival time, dose: 150.0 mg/kg/injection, schedule: Q03DX006 (ip), vehicle: saline
  T/C: 142 % of control
T/C endpoint: mean survival time, dose: 160.0 mg/kg/injection, schedule: Q01DX009 (ip), vehicle: saline
  T/C: 135 % of control
T/C endpoint: mean survival time, dose: 160.0 mg/kg/injection, schedule: Q01DX015 (ip), vehicle: saline
  T/C: 125 % of control
T/C endpoint: mean survival time, dose: 160.0 mg/kg/injection, schedule: Q01DX Z (ip), vehicle: other
  T/C: 125 and 132 % of control
T/C endpoint: mean survival time, dose: 175.0 mg/kg/injection, schedule: Q07DX003 (ip), vehicle: saline
  T/C: 128 % of control
T/C endpoint: mean survival time, dose: 176.0 mg/kg/injection, schedule: Q## X032 (ip), vehicle: saline
  T/C: 139 % of control
T/C endpoint: mean survival time, dose: 180.0 mg/kg/injection, schedule: Q01DX009 (ip), vehicle: saline
  T/C: 126 % of control
T/C endpoint: mean survival time, dose: 180.0 mg/kg/injection, schedule: Q## X009 (ip), vehicle: saline
  T/C: 126 % of control
T/C endpoint: mean survival time, dose: 188.0 mg/kg/injection, schedule: Q04DX003 (ip), vehicle: saline
  T/C: 145 % of control
T/C endpoint: mean survival time, dose: 200.0 mg/kg/injection, schedule: Q01DX Z (oral), vehicle: saline
  survivor count: 6 of 6
T/C endpoint: mean survival time, dose: 200.0 mg/kg/injection, schedule: Q04DX003 (ip), vehicle: saline
  T/C: 134 % of control
T/C endpoint: mean survival time, dose: 200.0 mg/kg/injection, schedule: Q04DX005 (ip), vehicle: saline
  T/C: 127 % of control
T/C endpoint: mean survival time, dose: 200.0 mg/kg/injection, schedule: Q## X004 (ip), vehicle: saline
  T/C: 148 % of control
T/C endpoint: mean survival time, dose: 270.0 mg/kg/injection, schedule: Q## X032 (ip), vehicle: water
  T/C: 132 [9 of 10 alive] and 138 % of control
T/C endpoint: mean survival time, dose: 284.0 mg/kg/injection, schedule: Q04DX002 (ip), vehicle: saline
  T/C: 115, 135, 142, 151 % of control
T/C endpoint: mean survival time, dose: 300.0 mg/kg/injection, schedule: Q02DX010 (ip), vehicle: carboxymethylcellulose (CMC)
  T/C: 145 % of control
T/C endpoint: mean survival time, dose: 317.0 mg/kg/injection, schedule: Q02DX008 (ip), vehicle: saline
  T/C: 140 % of control
T/C endpoint: mean survival time, dose: 335.0 mg/kg/injection, schedule: Q01DX001 (ip), vehicle: saline
  T/C: 135 % of control
T/C endpoint: mean survival time, dose: 335.0 mg/kg/injection, schedule: Q01DX001 (ip), vehicle: water
  T/C: 126 % of control
T/C endpoint: mean survival time, dose: 350.0 mg/kg/injection, schedule: Q07DX003 (ip), vehicle: saline
  T/C: 133 and 143 % of control
T/C endpoint: mean survival time, dose: 400.0 mg/kg/injection, schedule: Q01DX001 (ip), vehicle: saline
  T/C: 130 % of control
T/C endpoint: mean survival time, dose: 400.0 mg/kg/injection, schedule: Q01DX001 (ip), vehicle: water
  T/C: 126 % of control
T/C endpoint: mean survival time, dose: 500.0 mg/kg/injection, schedule: Q01DX001 (ip), vehicle: saline, evaluated on day 30
  T/C: 122 and 136 % of control
T/C endpoint: mean survival time, dose: 500.0 mg/kg/injection, schedule: Q01DX001 (ip), vehicle: saline, evaluated on day 46
  T/C: 156 % of control
T/C endpoint: mean survival time, dose: 500.0 mg/kg/injection, schedule: Q01DX001 (ip), vehicle: saline, run until all animals had died
  T/C: 135 and 151 % of control
T/C endpoint: mean survival time, dose: 500.0 mg/kg/injection, schedule: Q01DX001 (ip), vehicle: water
  T/C: 138 % of control
T/C endpoint: mean survival time, dose: 543.0 mg/kg/injection, schedule: Q01DX001 (ip), vehicle: saline
  T/C: 131 % of control
T/C endpoint: mean survival time, dose: 568.0 mg/kg/injection, schedule: Q04DX002 (ip), vehicle: saline
  T/C: 119, 125, 137, 147 % of control
T/C endpoint: mean survival time, dose: 600.0 mg/kg/injection, schedule: Q03DX006 (ip), vehicle: saline
  survivor count: 6 of 6
T/C endpoint: mean survival time, dose: 625.0 mg/kg/injection, schedule: Q01DX001 (ip), vehicle: saline
  T/C: 138 % of control (2×)
T/C endpoint: mean survival time, dose: 675.0 mg/kg/injection, schedule: Q## X004 (ip), vehicle: saline
  T/C: 126 % of control
T/C endpoint: mean survival time, dose: 750.0 mg/kg/injection, schedule: Q01DX001 (ip), vehicle: saline
  T/C: 135 % of control
T/C endpoint: mean survival time, dose: 800.0 mg/kg/injection, schedule: Q01DX001 (ip), vehicle: saline
  T/C: 142 % of control
T/C endpoint: mean survival time, dose: 800.0 mg/kg/injection, schedule: Q01DX005 (ip), vehicle: saline
  survivor count: 10 of 10
T/C endpoint: mean survival time, dose: 896.0 mg/kg/injection, schedule: Q## X032 (ip), vehicle: saline
  T/C: 126 % of control
T/C endpoint: mean survival time, dose: 1000.0 mg/kg/injection, schedule: Q01DX001 (ip), vehicle: saline, evaluated on day 30
  T/C: 117 and 152 % of control
T/C endpoint: mean survival time, dose: 1000.0 mg/kg/injection, schedule: Q01DX001 (ip), vehicle: saline, evaluated on day 46
  T/C: 170 % of control
T/C endpoint: mean survival time, dose: 1000.0 mg/kg/injection, schedule: Q01DX001 (ip), vehicle: saline, run until all animals had died
  T/C: 88 and 151 % of control
T/C endpoint: mean survival time, dose: 1280.0 mg/kg/injection, schedule: Q01DX009 (oral), vehicle: saline
  survivor count: 6 of 6
T/C endpoint: median survival time, dose: 40.0 mg/kg/injection, schedule: Q01DX009 (ip), vehicle: saline
  T/C: 130 and 146 % of control
T/C endpoint: median survival time, dose: 80.0 mg/kg/injection, schedule: Q01DX009 (ip), vehicle: saline
  T/C: 145 % of control
T/C endpoint: median survival time, dose: 160.0 mg/kg/injection, schedule: Q01DX009 (ip), vehicle: saline
  T/C: 133 % of control
T/C endpoint: median survival time, dose: 320.0 mg/kg/injection, schedule: Q01DX009 (ip), vehicle: saline
  survivor count: 6 of 6
